# Some of the results follow.
# Molecular target: T1, OsSMF1 (Oryza sativa, UniProt Q6ZLB0 1-436)
# T1 sequence: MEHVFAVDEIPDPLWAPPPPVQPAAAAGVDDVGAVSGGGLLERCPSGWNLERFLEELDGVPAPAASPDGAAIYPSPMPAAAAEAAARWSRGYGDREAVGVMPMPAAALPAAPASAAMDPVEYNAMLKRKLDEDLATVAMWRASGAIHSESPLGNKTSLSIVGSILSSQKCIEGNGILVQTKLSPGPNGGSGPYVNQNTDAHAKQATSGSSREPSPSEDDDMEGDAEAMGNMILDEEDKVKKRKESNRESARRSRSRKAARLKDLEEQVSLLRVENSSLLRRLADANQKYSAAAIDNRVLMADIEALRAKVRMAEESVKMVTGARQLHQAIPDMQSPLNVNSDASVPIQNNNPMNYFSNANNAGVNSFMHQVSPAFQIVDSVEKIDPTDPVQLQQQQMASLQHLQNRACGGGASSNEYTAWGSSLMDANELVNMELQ
# Assay: protein-binding microarray (RPBM); PBS, 2% BSA, 51.3 ng/ul salmon testes DNA, 50 uM zinc acetate, 200 nM TF, 25 C, 1 h; high values mean tight binding
# Settings: protein: recombinant; tags: N-terminal polyhistidine and DsRed monomer fusion (pET32a); chain copies: 2; label: CyDye5-dUTP incorporated in the synthesized complementary strand; 3' TTTTT single-stranded linker to array surface; dsDNA, one strand shown
# Procedure, shortened: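 Transcription factors were made in E. coli BL21-CodonPlus as N-terminal fusions to a polyhistidine tag and DsRed, then purified on Ni–NTA. After primer extension with Cy5-dUTP and blocking with 2% BSA, a custom Agilent array was exposed for 1 h at 25 °C to 200 nM protein in PBS, 2% BSA, salmon testes DNA and 50 µM zinc acetate. Washed arrays were scanned on an Axon 4000B, and the binding signal is per-feature fluorescence intensity in arbitrary units.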
row,Sequence,binding signal
1,GTCGTCGCCAAGGAATCATCCATGACGTCAGTCGCCGTGCCGGAGTCACCTAGTGCAG,7050 fluorescence intensity (a.u.)
2,TCTAGAAATAACACGTGGTGATTAATATGGTTGTTTGAACCGGAGTCACCTAGTGCAG,5460 fluorescence intensity (a.u.)
3,GCTCCATACTGTATGCCACGTCCCGTAAGAATACATGACACGGAGTCACCTAGTGCAG,6790 fluorescence intensity (a.u.)
4,TAAGCAGATTCACAATCAAGTACACAGGCAAGGACGTACGCGGAGTCACCTAGTGCAG,23300 fluorescence intensity (a.u.)
5,AGGAGTGATCGGCTGTTCTCCTGCCACGTCACCGGAATCGCGGAGTCACCTAGTGCAG,25400 fluorescence intensity (a.u.)
6,AGACTTCACCTGACCTTGCCTTGCCGGCCAGCGTGGACTCCGGAGTCACCTAGTGCAG,3530 fluorescence intensity (a.u.)
7,CTCGCCTCCGACCCCGGCCATGGCCTCCTCACGTCGGCTTCGGAGTCACCTAGTGCAG,3160 fluorescence intensity (a.u.)
8,ATCCGGAACACAGGACCATTCGATTTTAAGCAATCGGATGCGGAGTCACCTAGTGCAG,3950 fluorescence intensity (a.u.)
9,AATCTATGCATATATATATATATATATATGTCTAGATTCACGGAGTCACCTAGTGCAG,3240 fluorescence intensity (a.u.)
10,GATGGAGCATCACCGGCTTAATTAATTACGCGTCACTTGCCGGAGTCACCTAGTGCAG,6000 fluorescence intensity (a.u.)
11,CTGGACTCTGCTGCCACGTGTACTTATAAAATTGTCCCCTCGGAGTCACCTAGTGCAG,33600 fluorescence intensity (a.u.)
12,TTTGGTCAATATACACACTCCGTAATCACCCGGTACAACGCGGAGTCACCTAGTGCAG,3950 fluorescence intensity (a.u.)
13,CGGCCGGCGGCGGGCGCGGCTGGCGACGATGACGACGCAGCGGAGTCACCTAGTGCAG,6100 fluorescence intensity (a.u.)
14,ACTCCCCACCCATATATGAACACGCGCGGCGCCGCAGCGACGGAGTCACCTAGTGCAG,3550 fluorescence intensity (a.u.)
15,CTGAAATGTAGGAATGGAGAGTTCGAAAACAAAGTGGCACCGGAGTCACCTAGTGCAG,3950 fluorescence intensity (a.u.)
16,AAATGGGGCCTAGAGTTCCAACCAATTGCAGCAAGAGCAGCGGAGTCACCTAGTGCAG,3230 fluorescence intensity (a.u.)
17,GCACCGACCGAGCGAGCAAATGAGGAGTGGGAAGGTGACGCGGAGTCACCTAGTGCAG,3160 fluorescence intensity (a.u.)
18,TATGTGCGCTCATGGATCACATTGTTTTACCTAACTGGTCCGGAGTCACCTAGTGCAG,28900 fluorescence intensity (a.u.)
19,TCGTATTAAATACGATGACTTCACTTCACGATAAATATCACGGAGTCACCTAGTGCAG,3230 fluorescence intensity (a.u.)
20,CGAAATTGGATGAAATGGCAATGTGGCAAGATGGTGACGTCGGAGTCACCTAGTGCAG,5320 fluorescence intensity (a.u.)
21,CACCAGCCCACCATCCACCGCCACGTGGGACCCACCGCCCCGGAGTCACCTAGTGCAG,13000 fluorescence intensity (a.u.)

# Shown bar-delimited: entries from further up
row | Sequence | binding signal
7 | CTCGCCTCCGACCCCGGCCATGGCCTCCTCACGTCGGCTTCGGAGTCACCTAGTGCAG | 3160 fluorescence intensity (a.u.)
8 | ATCCGGAACACAGGACCATTCGATTTTAAGCAATCGGATGCGGAGTCACCTAGTGCAG | 3950 fluorescence intensity (a.u.)

# Next part

row,Sequence,binding signal
1,TCGTTTGTGATCGTACGCTAGCTCTCTCGACGATGCCTGACGGAGTCACCTAGTGCAG,3390 fluorescence intensity (a.u.)
2,TGCCTCGTAAATGCACAAAATCGGAGGGGTTTTATGCAAACGGAGTCACCTAGTGCAG,20200 fluorescence intensity (a.u.)
3,TTTATAACGGCCGTTCTGGTCCAAATACGAGCCCATTACACGGAGTCACCTAGTGCAG,3270 fluorescence intensity (a.u.)
4,ATATCTGACCGTGACTTACAGAGTAGCAACAGGGCCCAATCGGAGTCACCTAGTGCAG,3290 fluorescence intensity (a.u.)
5,AGTCCTGGATCCATCTCAGCGCCACGTCAACTGGTGCTGACGGAGTCACCTAGTGCAG,6800 fluorescence intensity (a.u.)
6,CTCCTCCGCCTCCCCGCCATCATTCCTCCTTCACCCTAGCCGGAGTCACCTAGTGCAG,3710 fluorescence intensity (a.u.)
7,GCGCCCGTCCAGTGGCGACTGGCGATGTATATATCCTTTGCGGAGTCACCTAGTGCAG,3140 fluorescence intensity (a.u.)
8,ATGAATGACCCTGCGACAACAAACCACATCATATCATGCGCGGAGTCACCTAGTGCAG,3740 fluorescence intensity (a.u.)
9,TTAGCCCACTACTCCCTTCTCAATCTTGACGTGTCACCGCCGGAGTCACCTAGTGCAG,17300 fluorescence intensity (a.u.)
10,GGGTAACGGAATTAGAAAGTGGTGTGAATGGAATCAGATCCGGAGTCACCTAGTGCAG,25600 fluorescence intensity (a.u.)
11,TACAAAGCCATCGATGTATGGTGATGATGCTGTCAGATACCGGAGTCACCTAGTGCAG,4510 fluorescence intensity (a.u.)
12,TCGCCCCGCCAAATCCCCACCGCTCCAAATTTCGAAAACCCGGAGTCACCTAGTGCAG,6260 fluorescence intensity (a.u.)
13,GTTTTCTAGTCATGTCTATCCTATTAGGTGTCTTTCTATTCGGAGTCACCTAGTGCAG,4090 fluorescence intensity (a.u.)
14,TCCAACTCACACCGTGTGCTGATGTGGCATGCCATGGTGGCGGAGTCACCTAGTGCAG,35900 fluorescence intensity (a.u.)
15,TCCTCTTGCCTCCTCCGCTGAGGCAGCCAGTGCGTGCGCCCGGAGTCACCTAGTGCAG,3360 fluorescence intensity (a.u.)
16,ATTGTCAAAATCATGGCGTAATTAGACTCAAAAGATCCGTCGGAGTCACCTAGTGCAG,21700 fluorescence intensity (a.u.)
17,GAAGAGAATCAGAGATGGTGGTGTGTCGTTGAACACGTTGCGGAGTCACCTAGTGCAG,3390 fluorescence intensity (a.u.)
18,AATTTTGGCATGTATGTGAGGTTGCATCTTTACTTGTACACGGAGTCACCTAGTGCAG,3200 fluorescence intensity (a.u.)
19,CACAAACTTATGAAATCTATGATTAGTCAGCTAGCCGTTGCGGAGTCACCTAGTGCAG,6550 fluorescence intensity (a.u.)
20,AATCCATCTGCTTGGATCATCAAAATCATAATATTATGTGCGGAGTCACCTAGTGCAG,3270 fluorescence intensity (a.u.)
21,CACTTCTGTACTTGGCGTGATTGGGCCGCGGACCGGTAGACGGAGTCACCTAGTGCAG,3190 fluorescence intensity (a.u.)
